We go through one molecule from article PMC11489581.

The target of assay [1] is JNK (human (endogenous in AGS and HGC-27)). Kind of assay: co-IP; membrane fractions of negative control and LCN2-overexpressing GC cells, co-immunoprecipitation and western blot.
Assay [2] shares this target. Kind of assay: co-IP; whole cell lysate of AGS and HGC-27 cells (5 mg protein), primary antibody overnight at 4 C, protein A/G agarose 2 h at 4 °C, western blot.

No constants are given. Whether binding was seen depends on the method and setting. Binding seen in cells or lysates may run through a third protein. Binding calls can cover weak binding; strength is not graded here.

B1: 24p3R (receptor, UniProt Q8WUG5 1-649)
chain: MAPRVATGTPEPNGGGGGKIDNTVEITPTSNGQVGTLGDAVPTEQLQGEREREREGEGDAGGDGLGSSLSLAVPPGPLSFEALLAQVGALGGGQQLQLGLCCLPVLFVALGMASDPIFTLAPPLHCHYGAFPPNASGWEQPPNASGVSVASAALAASAASRVATSTDPSCSGFAPPDFNHCLKDWDYNGLPVLTTNAIGQWDLVCDLGWQVILEQILFILGFASGYLFLGYPADRFGRRGIVLLTLGLVGPCGVGGAAAGSSTGVMALRFLLGFLLAGVDLGVYLMRLELCDPTQRLRVALAGELVGVGGHFLFLGLALVSKDWRFLQRMITAPCILFLFYGWPGLFLESARWLIVKRQIEEAQSVLRILAERNRPHGQMLGEEAQEALQDLENTCPLPATSSFSFASLLNYRNIWKNLLILGFTNFIAHAIRHCYQPVGGGGSPSDFYLCSLLASGTAALACVFLGVTVDRFGRRGILLLSMTLTGIASLVLLGLWDCEHPIFPTVWAQQGNPNRDLNEAAITTFSVLGLFSSQAAAILSTLLAAEVIPTTVRGRGLGLIMALGALGGLSGPAQRLHMGHGAFLQHVVLAACALLCILSIMLLPETKRKLLPEVLRDGELCRRPSLLRQPPPTRCDHVPLLATPNPAL
Consider B1, for which the binding result in assay [1] and in assay [2] was “binds” throughout.
